Measurements published in article PMC8501957.

T1: MvaT 79-124-His (P. aeruginosa) (UniProt Q9HW86)
T1 sequence: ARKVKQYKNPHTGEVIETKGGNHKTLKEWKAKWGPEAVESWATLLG

T2: MvaT 1-62-His (P. aeruginosa) (UniProt Q9HW86)
T2 sequence: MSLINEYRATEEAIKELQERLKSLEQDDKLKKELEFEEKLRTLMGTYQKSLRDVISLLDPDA


How the values were obtained:
[1] = biological target: T1, MvaT 79-124-His (P. aeruginosa); assay: pull-down; His-tagged MvaT fragment (40 uM) and gp4 (40 uM) on High-Density Nickel Agarose; 100 mM NaCl, 10 mM Tris-HCl pH 7.2, 50 mM imidazole, 20 mM MgCl2; six washes, elution with 1.5 M imidazole, tricine gel; both purified
[2] = biological target: T2, MvaT 1-62-His (P. aeruginosa); assay: as above
[3] = biological target: gp4 of Pseudomonas phage LUZ24 (Pseudomonas phage LUZ24); assay: NMR titration; 15N gp4 titrated with unlabelled MvaT2 (gp4:MvaT 1.2:1) or unlabelled DBD (gp4:DBD up to 1:3); HSQC spectra; both purified

| Molecule | binding [1] | binding [2] | binding [3] |
| --- | --- | --- | --- |
| gp4 of Pseudomonas phage LUZ24 | no binding (tested: 40 uM each) | binds |  |
| ARKVKQYKNPHTGEVIETKGGNHKTLKEWKAKWGPEAVESWATLLG (domain or fragment, UniProt Q9HW86 79-124) [MvaT 79-124-His] |  |  | no binding (tested: molar ratio of gp4:DBD of 1:3) |

No constants are given. Whether binding was seen depends on the method and setting. For part of these data: Binding can be weak; no strength is given. Sequences can lack the tags named with a protein.
